The data set in a line: evaluation of various acid addition salts. To be noted: for Observation: precipitation of the acid addition salt: even with variation of the solvent. In kind it is physicochemical. From the text: Evaluation of various acid addition salts of 2-{3-[4-(2-t-butyl-6-trifluoromethyl-4-pyrimidyl)-1-piperazinyl)propylthio}-4-5 pyrimidinol

Some compounds share one wording; it may come from a single statement.

For Citrate, the “Observation: precipitation of the acid addition salt” value (“Observation: precipitation” below) is “the acid addition salt could not be”. Still for that read-out and setting: as for Lactate, the entry is “the acid addition salt could not be”. With Malate, the “Observation: handling of the salt” value is given as “difficult to handle” and the “Observation: precipitation” value was “precipitates slowly overnight as a”.

Turning to Tartrate, the “Observation: precipitation” value was “the acid addition salt could not be”.

For the origin of these results see US6486162B2, “2-{3-[4-(2-t-butyl-6-trifluoromethyl-4-pyrimidinyl)-1- piperazinyl] propylthio}-4-pyrimidinol fumarate” (Abbott Laboratories, priority 1997, dated 2002).
